{"source": "PubChem BioAssay AID743456 – Peter MacCallum Cancer Centre, 2014", "screen": "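Mimic library tested for viability and apoptosis changes under vorinostat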 (primary screen)", "cells": "human HCT116-VR colon cancer cells, a vorinostat-resistant HCT116 line", "reagent": "miRNA mimic", "timing": "about 3 days from transfection to readout; drug present for the last 24 h", "challenge": "vorinostat at 2.5 µM final for 24 h", "measured": "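Cell viability from CellTiter-Fluor signal and caspase activity from luminescence after 24 h vorinostat at 2.5 µM, given as robust z-scores and as ratios to mock-transfected wells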", "direction": "viability robust z-score: higher = more viable cells; caspase robust z-score: higher = more caspase activity, more apoptosis", "hit rule": "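a mimic counts as active if it lands in a lowered-viability class or a caspase-activation class; wells with too few cells without drug are left out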", "note": "Here is an unselected part of 878 reagents tested. Of all reagents, 27 (3.1%) got an active call. 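27 mimics are marked active, unlike an earlier stated count of 24; the viability threshold is described inconsistently.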 Unmarked entries are inactive. Further read-outs or replicates are left out here. Not stated in the record: the amount of reagent."}
{"miRNA": "hsa-miR-563", "viability robust z-score": -0.94, "caspase robust z-score": 3.63, "viability hit class": "no change", "caspase hit class": "no change"}
{"miRNA": "hsa-miR-625*", "viability robust z-score": -0.2, "caspase robust z-score": -0.03, "viability hit class": "no change", "caspase hit class": "no change"}
{"miRNA": "hsa-miR-551a", "viability robust z-score": 0.06, "caspase robust z-score": -0.8, "viability hit class": "no change", "caspase hit class": "no change"}
{"miRNA": "hsa-miR-134", "viability robust z-score": -0.88, "caspase robust z-score": 3.33, "viability hit class": "no change", "caspase hit class": "no change"}
{"miRNA": "hsa-miR-591", "viability robust z-score": -0.62, "caspase robust z-score": -0.23, "viability hit class": "no change", "caspase hit class": "no change"}
{"miRNA": "hsa-miR-758", "viability robust z-score": -0.38, "caspase robust z-score": -0.77, "viability hit class": "no change", "caspase hit class": "no change"}
{"miRNA": "hsa-miR-20a", "viability robust z-score": 0.26, "caspase robust z-score": -0.04, "viability hit class": "no change", "caspase hit class": "no change"}
{"miRNA": "hsa-miR-30b", "viability robust z-score": 1.08, "caspase robust z-score": -0.2, "viability hit class": "no change", "caspase hit class": "no change"}
{"miRNA": "hsa-miR-518c", "viability robust z-score": 0.24, "caspase robust z-score": -0.39, "viability hit class": "no change", "caspase hit class": "no change"}
{"miRNA": "hsa-miR-588", "viability robust z-score": 0.83, "caspase robust z-score": 0.1, "viability hit class": "no change", "caspase hit class": "no change"}
{"miRNA": "hsa-miR-410", "viability robust z-score": 0.79, "caspase robust z-score": -0.76, "viability hit class": "no change", "caspase hit class": "no change"}
{"miRNA": "hsa-miR-93", "viability robust z-score": 0.52, "caspase robust z-score": -0.06, "viability hit class": "no change", "caspase hit class": "no change"}

Quoted from above (2 entries):
{"miRNA": "hsa-miR-588", "viability robust z-score": 0.83, "caspase robust z-score": 0.1, "viability hit class": "no change", "caspase hit class": "no change"}
{"miRNA": "hsa-miR-410", "viability robust z-score": 0.79, "caspase robust z-score": -0.76, "viability hit class": "no change", "caspase hit class": "no change"}
